Measured values from patent US5912325A, “Biologically active porcine somatotropin polypeptides and methods of using the same” (American Cyanamid Company, priority 1994, dated 1999).
Part of at least one peptide drawing is inferred or uncertain, most often the ends. No end group written: not given here.

Legend:
pST (54-95) peptide = molecular target: T1, pST (54-95) peptide (Sus scrofa, UniProt P01248); test: ELISA, plate coated with peptide pST (54-95): antibody titers in sera of pigs immunized with pST (54-95); format: binding, porcine; conditions: sera of two pigs injected with ovalbumin conjugate in Freund's adjuvant, after two antigen boostings; FIG. 2
T1 construct: made in house; host or cells: chemical solid-phase (Fmoc) peptide synthesis, no expression host
T1 sequence (P01248 79-120): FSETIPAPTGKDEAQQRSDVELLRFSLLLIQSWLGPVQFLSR

pST = molecular target: T2, pST (Sus scrofa, UniProt P01248); test: ELISA, plate coated with pST: anti-pST antibody titers in sera of pigs immunized with pST (54-95); format: binding, porcine; conditions: sera of two pigs injected with ovalbumin conjugate in Freund's adjuvant, after two antigen boostings; FIG. 1
T2 sequence (P01248 27-216): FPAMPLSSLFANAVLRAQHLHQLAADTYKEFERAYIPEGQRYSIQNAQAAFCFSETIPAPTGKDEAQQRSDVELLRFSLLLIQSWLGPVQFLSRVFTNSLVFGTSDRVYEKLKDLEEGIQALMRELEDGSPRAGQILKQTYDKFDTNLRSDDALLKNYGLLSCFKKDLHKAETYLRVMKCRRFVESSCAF

FSETIPAPTGKDEAQQRSDVELLRFSLLLIQSWLGPVQFLSR [pST (54-95)]
antibody titers in ELISA against pST (54-95) peptide as target (pST (54-95) peptide): both immunized pigs generate anti-peptide antibody | antibody titers in ELISA against pST (pST): contain antibodies immunoreactive with pST
